This is an account of results in PubChem BioAssay AID2685 (National Center for Advancing Translational Sciences (NCATS), 2010).

The assay is described as follows: qHTS Assay for Lipid Storage Modulators in Drosophila S3 Cells.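 On cell number change: cells counted by Cell Tracker Red CMTPX staining in the red channel.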 The note with it: BODIPY lipid droplet fluorescence, 18-24 h; for cell number change: measured here: cell count max response, cells fed with added oleic acid. In outline:
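Laser-scanning cytometry quantifies lipid droplet accumulation (500–530 nm total intensity; droplet/cell object ratio) in oleic acid-fed (400 uM added) Drosophila S3 cells treated with a concentration series. 20 uM Triacsin C defined 100% inhibition.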
On the technique in general: qHTS replaces the single test concentration by a dilution series.

Setting [1] is: measured here: cell number channel AC50, cells fed with added oleic acid.
Setting [2] is: measured here: lipid fluorescence (Fed channel) AC50, cells fed with added oleic acid.

Some of the results follow. These are further read-outs of the screen, such as a control signal, another cell line or another target. No call is given for them. The list favours compounds with an active or inconclusive main result. Words in brackets tell the shape of the fitted curve; partial curves, single points and poor fits give uncertain potencies.

Turning to `O=C(N1CCNCC1)N1CCOCC1`, the cell number change was -72.8%. For the same compound, the AC50 (usually the midpoint of the concentration-response curve, whichever way the signal moves) under setting [1] is 16.4 µM [falling, partial curve]. Moreover, the AC50 under setting [2] was 6.51 µM [falling, single point].
Turning to `COC(=O)c1ccc2c(c1)NC(=O)CS2`, the cell number change turned out to be 24.1%.
On to `COc1ccc(CNc2ccc3cn[nH]c3c2)c(OC)c1OC`, for which the cell number change was 0.979%.
In the case of `CCOc1ccc(NC(=O)c2nccnc2CO)cc1`, the cell number change was -5.16%. Also, under setting [2], the AC50 is 6.51 µM [rising, single point].
For `Cc1ccc(-n2ncc3c2CCCC3NC(=O)c2cnccn2)cc1C` (stereo not drawn), the cell number change is -5.38%. In addition, the half-maximal activity concentration (AC50) under setting [1] is 0.291 µM [falling, partial curve, poor fit]. The AC50 under setting [2] is 0.231 µM [falling, full curve].
Take `COc1cccc(NS(=O)(=O)c2ccc3c(c2)CC(=O)N3)c1`: the cell number change is -11.8%. For the same compound, the AC50 under setting [2] was 6.51 µM [falling, single point].
For the compound `COC(=O)COc1ccc(C2Nc3c(Cl)ccc(C(=O)O)c3C3C=CCC32)cc1` (stereo not drawn), the AC50 reads like this: under setting [1], 6.51 µM [rising, partial curve, poor fit]; under setting [2], 4.61 µM [rising, full curve, poor fit].
In the case of `CCc1cc2c(SCC(=O)c3ccc(Cl)s3)ncnc2s1`, the cell number change worked out at 30.2%. Moreover, the concentration at half-maximal activity (AC50) under setting [1] was 6.51 µM [rising, single point]. The AC50 under setting [2] was 7.31 µM [rising, single point].
In the case of `CC1CC(C)CN(C(=O)C2CCCN(S(=O)(=O)c3cccc4nonc34)C2)C1` (stereo not drawn), the cell number change is -10.2%. Under setting [2], the half-maximal activity concentration (AC50) is 2.59 µM [rising, partial curve].
In the case of `CS(=O)(=O)c1cccc(C(=O)Nc2cccc(-c3nc4ccccc4[nH]3)c2)c1`, the AC50 under setting [2] is 8.2 µM [falling, partial curve].
Turning to `O=C(CSCc1ccccc1)N1CCN(c2ccc(F)cc2)CC1`, the cell number change was -31.5%. Moreover, the AC50 under setting [1] is 5.8 µM [falling, full curve, poor fit]. In addition, the AC50 under setting [2] was 13 µM [falling, partial curve].
As to `CCOC(=O)C1=C(COC(=O)c2nc(Cl)ccc2Cl)NC(=O)NC1C` (stereo not drawn), the cell number change worked out at 7%.
As for `CNC(=O)c1nc(C)c(C2(C)CC(c3ccccc3)=NO2)s1` (stereo not drawn), the cell number change was 6.16%. In addition, under setting [2], the half-maximal activity concentration (AC50) is 25.9 µM [rising, partial curve, poor fit].
Regarding `O=S(=O)(Nc1cccc2c1CCCC2)c1cccc(C(F)(F)F)c1`, the cell number change is -30.3%. Besides, the AC50 under setting [1] is 29.1 µM [falling, single point]. For the same compound, under setting [2], the AC50 was 29.1 µM [falling, single point].
`CC(C)(C)N=C1NN=C(c2ccc(S(=O)(=O)N3CCCCC3)cc2)CS1`: the cell number change was -67%. In addition, under setting [1], the AC50 is 29.1 µM [falling, single point].
As for `CC(C)C(NC(=O)CCN1C(=O)c2ccccc2C1=O)c1ccccc1` (stereo not drawn), the cell number change came out at 38.6%. The AC50 under setting [1] is 4.61 µM [rising, partial curve, poor fit].
Take `CCN(CC)S(=O)(=O)c1ccc(N/N=C/c2ccc(O)cc2)nc1`: the cell number change came out at 13.7%. The AC50 under setting [2] is 6.51 µM [rising, single point].
With `COc1cccc(N2CCN(C(=O)C3CCN(S(=O)(=O)c4ccc5c(c4)oc(=O)n5C)CC3)CC2)c1`, the cell number change was -38.9%.
With `CCOC(=O)C1CCCN(S(=O)(=O)c2cn(C)c(=O)n(C)c2=O)C1` (stereo not drawn), the AC50 under setting [2] is 0.092 µM [falling, full curve].
In the case of `Cc1ccc2c(C(=O)CN3CCCCC3)c(C)[nH]c2c1`, the cell number change was determined as 34.5%. Besides, the AC50 under setting [1] is 23.1 µM [rising, single point].
For the compound `FC(F)(F)c1cccc(N2CCc3cn[nH]c32)c1`, the concentration at half-maximal activity (AC50) under setting [2] was 6.51 µM [rising, single point].
Consider `Cc1ccc2c(c1)c1ccc3c(c1n2C)C(=O)C=CC3=O`, for which the cell number change is -62.8%. Moreover, the AC50 under setting [1] is 18.4 µM [falling, partial curve, poor fit].
For `CC(C)(Oc1ccc(Cl)cc1)C(=O)N(Cc1ccccc1)c1ccccn1`, the concentration at half-maximal activity (AC50) under setting [2] was 0.0731 µM [falling, full curve, poor fit].
Turning to `CNc1nc(C)c(C#N)c(-c2ccccc2)c1C(C)=O`, the cell number change was -11.4%. The AC50 under setting [2] was 0.291 µM [rising, partial curve, poor fit].
Turning to `CN1C(=O)c2cccc3c(S(=O)(=O)Nc4ccccn4)ccc1c23`, the cell number change is -30.5%. Moreover, under setting [1], the concentration at half-maximal activity (AC50) is 20.6 µM [falling, single point]. Also, the concentration at half-maximal activity (AC50) under setting [2] is 16.4 µM [falling, single point].
As for `O=C(Nc1ccccc1C(=O)N1CCCCCC1)c1ccc(F)cc1`, the cell number change turned out to be 31.2%. Also, the AC50 under setting [1] is 29.1 µM [rising, single point]. The AC50 under setting [2] is 29.1 µM [rising, single point].
As to `CCCN(CC(=O)Nc1ccc(C(N)=O)cc1)CC(=O)Nc1ccc(F)c(F)c1F`, the cell number change came out at 284%. Further, under setting [1], the AC50 is 29.1 µM [rising, partial curve].
For the compound `CC1Sc2ccc(Cl)cc2-c2nc(N)ncc21` (stereo not drawn), the cell number change is -37.2%. In addition, the half-maximal activity concentration (AC50) under setting [1] was 0.082 µM [falling, full curve, poor fit].
Take `COc1ccc(/C=N/NC(=O)c2ccc(CSc3nncn3C)cc2)cc1OC`: the cell number change turned out to be 31%. The AC50 under setting [1] is 13 µM [rising, single point]. Under setting [2], the AC50 was 0.13 µM [rising, full curve, poor fit].
`COc1ccc(S(=O)(=O)Nc2c(C)ccc3nsnc23)cc1OC`: the cell number change came out at 15.8%. Moreover, the AC50 under setting [2] is 0.731 µM [rising, full curve].
`O=C(NCc1ccco1)C(c1ccncc1)N(C(=O)Cn1nnc2ccccc21)c1ccccc1F` (stereo not drawn): the cell number change is -14.1%.
In the case of `CSc1ccc(S(=O)(=O)NCC(=O)OCCOc2ccccc2)cc1[N+](=O)[O-]`, the cell number change is -4.3%. Under setting [2], the AC50 was 0.00461 µM [rising, full curve, poor fit].
Turning to `COc1ccc(/C=C/C(=O)Nc2cccnc2)cc1OC`, the cell number change is -38.6%. In addition, the half-maximal activity concentration (AC50) under setting [1] is 32.6 µM [falling, single point]. Further, under setting [2], the AC50 was 6.51 µM [rising, single point].
In the case of `O=C(Nc1ccc(-c2cscn2)cc1)C1CCCN(Cc2ccccc2)C1` (stereo not drawn), the cell number change came to 37%. Further, under setting [2], the AC50 is 6.51 µM [rising, single point].
Turning to `OCC1(Cc2ccccc2F)CCCN(Cc2c(F)ccc(F)c2F)C1` (stereo not drawn), the cell number change is -16.8%. Further, the AC50 under setting [2] is 16.4 µM [falling, single point].
Take `Cn1c(=O)[nH]c(=O)c2c1nc(N(CCO)Cc1ccccc1)n2CCCc1ccccc1`: the cell number change was -16.7%. For the same compound, under setting [2], the AC50 was 13 µM [falling, partial curve, poor fit].
Consider `COc1ccc(S(=O)(=O)N2CCCCC2)cc1NC(=O)c1ccccc1`, for which the cell number change was 51.3%. Also, under setting [1], the AC50 was 8.2 µM [rising, partial curve].
In the case of `COc1ccc(C(CNC(=O)c2ccco2)N2CCCCC2)cc1` (stereo not drawn), the cell number change was -88.7%. For the same compound, the AC50 under setting [1] is 23.1 µM [falling, partial curve, poor fit]. In addition, the AC50 under setting [2] is 29.1 µM [falling, partial curve, poor fit].
With `CCCCn1c(SCC(=O)N(CC)C2CCS(=O)(=O)C2)nc2cc(S(N)(=O)=O)ccc21` (stereo not drawn), under setting [1], the AC50 was 0.116 µM [rising, single point].
For the compound `N#C/C(=C1\CCCN1)c1ccc2ccccc2n1`, the cell number change was -14.1%.
Turning to `CC1CCN(C(=O)C2CCCN2S(=O)(=O)c2ccc(Cl)cc2)CC1` (stereo not drawn), the cell number change was -7.08%. Further, the AC50 under setting [2] was 0.58 µM [rising, single point].
Take `CCOC(=O)Cn1c(=O)c(-c2cc(Br)ccc2N)nc2ccccc21`: the cell number change was determined as 53.6%. Also, the AC50 under setting [1] was 2.06 µM [rising, partial curve, poor fit].
Turning to `Nc1c(-c2ccc(Cl)cc2)cnn1-c1ccccc1`, the cell number change was 20.6%. In addition, the AC50 under setting [2] is 29.1 µM [rising, single point].
Regarding `O=C(CN(Cc1ccccc1)C(=O)CNS(=O)(=O)c1ccc(F)cc1)NCC1CCCO1` (stereo not drawn), the cell number change was 6.41%. The AC50 under setting [2] is 29.1 µM [falling, single point].
Take `O=C(CSc1ncn(-c2ccccc2)n1)NCc1ccccc1`: the cell number change is 3.25%. In addition, the AC50 under setting [2] is 6.51 µM [rising, single point].
In the case of `Cc1ccc2nc3c(cc(C(=O)NC4CCCC4)c(=N)n3C3CCCCC3)c(=O)n2c1`, the cell number change came to 89.7%. Further, the AC50 under setting [1] was 29.1 µM [rising, single point]. Also, under setting [2], the AC50 was 5.17 µM [falling, single point].
As for `c1ccc(Cn2c(-c3cccs3)nc3nc4ccccc4nc32)cc1`, the cell number change worked out at 60%. Moreover, the AC50 under setting [1] was 0.58 µM [rising, full curve]. Also, the AC50 under setting [2] was 2.91 µM [rising, single point].
Regarding `CCN1CCN(c2ccc(Cl)cc2NC(=O)c2ccc(-n3nc(C)cc3C)cc2)CC1`, the cell number change is -11.8%. Under setting [2], the AC50 was 0.731 µM [falling, full curve].
As for `Cc1nnc(SCCn2c(N3CCCCCC3)nc3c2c(=O)[nH]c(=O)n3C)s1`, the cell number change is -0.958%.
Regarding `Nc1c([N+](=O)[O-])c(=O)oc2ccccc12`, the cell number change was 4.47%. Under setting [2], the AC50 is 6.51 µM [rising, single point].
As for `CSc1ncc(C(=O)Nc2ccccc2Cl)c(C)n1`, the cell number change is -31.7%. Under setting [1], the AC50 is 1.64 µM [falling, full curve].
Take `CC(=O)c1c(C)[nH]c(C(=O)CN2C(=O)NC3(CCCCC3)C2=O)c1C`: the cell number change is 69.5%. Besides, the AC50 under setting [1] is 29.1 µM [rising, single point]. Besides, the concentration at half-maximal activity (AC50) under setting [2] was 0.00517 µM [rising, full curve, poor fit].
Consider `Cc1ccsc1/C=N/NC(=O)Cc1cccn1C`, for which the cell number change came to 21.9%. The AC50 under setting [2] is 3.26 µM [rising, partial curve].
Take `CC(=O)OCc1c(F)c(F)c(-n2nc(C)cc2C)c(F)c1F`: the cell number change is 4.78%.
Regarding `CCSC1=C(C#N)C(c2ccccc2Cl)C(C(=O)c2cccs2)C(O)(C(F)(F)F)N1` (stereo not drawn), the AC50 under setting [2] is 0.58 µM [falling, single point].
In the case of `CCOC(=O)c1c(-c2ccccc2)oc2ccc(O)cc12`, the cell number change was -29.9%. For the same compound, under setting [2], the AC50 was 29.1 µM [falling, single point].
Take `COc1ccc(N2CCN(S(=O)(=O)c3ccc(Cl)s3)CC2)cc1`: the cell number change was determined as 2.3%. Besides, under setting [2], the AC50 is 29.1 µM [falling, single point].
For the compound `COc1ccc(C(CCNC(C)c2ccccc2)c2ccc(F)cc2)cc1` (stereo not drawn), the cell number change is -59.8%. Further, under setting [1], the AC50 was 20.6 µM [falling, single point]. Under setting [2], the concentration at half-maximal activity (AC50) is 20.6 µM [falling, partial curve].
For the compound `O=C(Cn1c(=O)oc2cc(S(=O)(=O)N3CCCC3)ccc21)N1CCN(C2CCCCC2)CC1`, the cell number change is 6.32%. Besides, the AC50 under setting [2] is 1.03 µM [falling, full curve, poor fit].
